Sequences of proteins named here, by UniProt entry; tags and fusion partners are left off. A change or cut given only in a name is not applied to a line headed by its entry.
UniProt Q13421: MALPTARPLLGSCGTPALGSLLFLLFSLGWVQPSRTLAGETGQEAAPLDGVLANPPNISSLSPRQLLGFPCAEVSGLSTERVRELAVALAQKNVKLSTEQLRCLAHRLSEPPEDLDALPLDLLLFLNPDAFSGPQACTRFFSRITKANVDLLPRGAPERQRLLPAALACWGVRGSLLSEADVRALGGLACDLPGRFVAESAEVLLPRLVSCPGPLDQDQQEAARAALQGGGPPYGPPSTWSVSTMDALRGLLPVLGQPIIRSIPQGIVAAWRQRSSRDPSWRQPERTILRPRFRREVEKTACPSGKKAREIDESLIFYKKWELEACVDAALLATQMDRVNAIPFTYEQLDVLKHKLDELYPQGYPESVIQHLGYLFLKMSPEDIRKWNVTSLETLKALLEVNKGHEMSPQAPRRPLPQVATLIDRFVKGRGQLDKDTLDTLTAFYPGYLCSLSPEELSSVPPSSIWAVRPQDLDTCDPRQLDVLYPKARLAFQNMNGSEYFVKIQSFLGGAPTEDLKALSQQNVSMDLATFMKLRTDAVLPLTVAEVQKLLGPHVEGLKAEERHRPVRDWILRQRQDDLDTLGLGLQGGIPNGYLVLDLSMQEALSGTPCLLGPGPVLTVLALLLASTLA

In US20240124563A1:

Biological target: human MSLN protein endogenously expressed on tumor cells (Hela, OVCAR3) (human) (UniProt Q13421)
Assay: FACS, OVCAR3 cells

B1: Tab107 (YP3, hIgG1) (antibody, V domains shown)
VH: QEQLVESGGGLVQPGASLTLTCTASGIDFSRYYMCWVRQAPGKGLEGIACIYIGGSGSTYYASWAKGRFTISKASSTTVTLQMTSLTAADTATYFCARGTNLNYIFRLWGPGTLVTVSS
VL: DVVMTQTPSPVSAAVGGTVTIKCQASQSINNGLAWYQQKPGQPPRLLIYSASNLESGVPSRFKGSGSGTEFTLTISDLECDDAATYYCQCIWDGNSYVNAFGGGTEVVVRT
Q: B1 was tested. Which binding did it give?
A: binds

Results are given in words; binding and its absence hold for the method and conditions named. Binding calls can cover weak binding; strength is not graded here.
